Data taken from PMC2905701 (Bioinorganic Chemistry and Applications, 2010).

Assay: general procedure: Fmoc solid-phase peptide synthesis; Rink Amide MBHA resin or 2-chlorotrityl-chloride resin bearing a Rink-Bernatowitz linker; DIC/HOBt; if necessary TBTU/HOBt/DIEA
Conditions: whole synthesis, amino acid content of the resin

Question: With [D-Phe^12,Cys(Et)^21]CRH as the substance, how does the isolated yield read?
Answer: 39%

Question: Which isolated yield does the source give for [D-Phe^12,Cys(Pr)^21, Cys(Pr)^38]CRH here?
Answer: 36%

Question: Which isolated yield does the source give for [D-Phe^12, Aib^15]CRH here?
Answer: 38%

Question: Which isolated yield does the source give for [D-Phe^12, Aib^14]CRH here?
Answer: 41%

Question: With [D-Phe^12,Cys(Pr)^21, Cys(Et)^38]CRH as the substance, how does the isolated yield read?
Answer: 35%

Question: Which isolated yield does the source give for [D-Phe^12,Cys(Pr)^38]CRH here?
Answer: 37%

Question: Which isolated yield does the source give for [D-Phe^12,Cys(Et)^21, Cys(Pr)^38]CRH here?
Answer: 33%
